Source: patent publication US11814352B2, “Salts formed by 2-(1-acyloxy-n-pentyl) benzoic acid and basic amino acid or aminoguanidine, and preparation method and application thereof” (JIANGSU KANION PHARMACEUTICAL CO., LTD., priority 2018, dated 2023)
Some entries share one result that the patent states for a list of compounds. At least one structure is not confirmed: it was looked up by name or label, or the drawing left a doubt.

The chains behind the UniProt entries cited, without tags or fusion partners. Where a name states a change or a piece, a line headed by the entry shows the natural chain unless it says otherwise.
UniProt Q12809: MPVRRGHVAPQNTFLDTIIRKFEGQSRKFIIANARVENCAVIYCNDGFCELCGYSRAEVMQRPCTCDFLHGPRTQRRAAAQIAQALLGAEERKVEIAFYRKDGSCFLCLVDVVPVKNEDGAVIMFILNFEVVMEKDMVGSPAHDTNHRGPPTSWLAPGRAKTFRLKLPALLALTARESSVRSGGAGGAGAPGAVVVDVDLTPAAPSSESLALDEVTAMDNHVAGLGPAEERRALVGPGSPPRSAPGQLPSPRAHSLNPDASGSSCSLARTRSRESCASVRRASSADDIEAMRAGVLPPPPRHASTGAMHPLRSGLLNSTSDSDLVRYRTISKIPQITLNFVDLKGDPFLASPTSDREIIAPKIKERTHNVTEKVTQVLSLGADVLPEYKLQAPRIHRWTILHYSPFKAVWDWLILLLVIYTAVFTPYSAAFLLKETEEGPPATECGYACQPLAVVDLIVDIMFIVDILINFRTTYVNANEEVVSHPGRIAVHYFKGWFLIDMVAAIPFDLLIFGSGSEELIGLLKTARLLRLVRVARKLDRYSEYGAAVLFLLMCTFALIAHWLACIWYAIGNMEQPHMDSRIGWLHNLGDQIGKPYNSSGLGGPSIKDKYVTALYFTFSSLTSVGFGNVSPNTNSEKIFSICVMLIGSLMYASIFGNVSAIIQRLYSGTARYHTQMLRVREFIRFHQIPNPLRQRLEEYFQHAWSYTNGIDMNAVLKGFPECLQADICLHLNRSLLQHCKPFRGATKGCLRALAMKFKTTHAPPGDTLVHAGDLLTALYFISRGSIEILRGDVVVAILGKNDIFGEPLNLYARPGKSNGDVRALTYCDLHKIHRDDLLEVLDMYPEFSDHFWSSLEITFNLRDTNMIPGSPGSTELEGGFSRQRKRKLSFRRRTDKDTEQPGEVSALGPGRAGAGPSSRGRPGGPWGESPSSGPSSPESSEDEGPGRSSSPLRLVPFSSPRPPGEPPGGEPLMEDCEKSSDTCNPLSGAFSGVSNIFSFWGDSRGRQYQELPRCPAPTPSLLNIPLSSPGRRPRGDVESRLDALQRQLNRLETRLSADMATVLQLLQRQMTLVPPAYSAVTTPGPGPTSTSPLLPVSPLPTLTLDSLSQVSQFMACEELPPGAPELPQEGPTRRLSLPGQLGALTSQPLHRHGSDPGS

Target: hERG potassium channel of CHO-hERG cells (Homo sapiens, UniProt Q12809)
Experiment: Effect on hERG potassium channel (automatic patch clamp)
Details: read-out: IC50 hERG potassium channel

## CCCC[C@@H]1OC(=O)c2ccccc21 [(S)-NBP, (S)-butylphthalide]
  IC50: > 40 µM
